Among the data in publication PMC6121465 are binding values, retold here.

Results are given in words; binding and its absence hold for the method and conditions named.

This experiment deals with Prefoldin from Chaetomium thermophilum (CtPFD), reconstituted hexameric complex (Chaetomium thermophilum var. coprophilum strain NBRC 30,073). Description: pull-down; CtPFD bound in advance to a StrepTrap HP column; substrates unfolded in 6 M guanidine hydrochloride, diluted into 50 mM Tris-HCl pH 8.0, 100 mM KCl, 5 mM MgCl2 and applied at once; elution with 2.5 mM D-desthiobiotin; SDS-PAGE and western blot; both purified.

B1: Porcine heart citrate synthase, denatured (enzyme, UniProt P00889 28-464)
chain: ASSTNLKDILADLIPKEQARIKTFRQQHGNTVVGQITVDMMYGGMRGMKGLVYETSVLDPDEGIRFRGYSIPECQKMLPKAKGGEEPLPEGLFWLLVTGQIPTEEQVSWLSKEWAKRAALPSHVVTMLDNFPTNLHPMSQLSAAITALNSESNFARAYAEGIHRTKYWELIYEDCMDLIAKLPCVAAKIYRNLYREGSSIGAIDSKLDWSHNFTNMLGYTDAQFTELMRLYLTIHSDHEGGNVSAHTSHLVGSALSDPYLSFAAAMNGLAGPLHGLANQEVLVWLTQLQKEVGKDVSDEKLRDYIWNTLNSGRVVPGYGHAVLRKTDPRYTCQREFALKHLPHDPMFKLVAQLYKIVPNVLLEQGKAKNPWPNVDAHSGVLLQYYGMTEMNYYTVLFGVSRALGVLAQLIWSRALGFPLERPKSMSTDGLIKLVDSK
Consider B1, for which the binding result is “no binding”.
